Measured values: PMC11898301
No constants are given. Whether binding was seen depends on the method and setting. Binding seen in cells or lysates may run through a third protein. Some entries that bind do so weakly or less than the wild type. Tags and fused reporters may be left off the sequences shown.

Sequences of proteins named here, by UniProt entry; tags and fusion partners are left off.
UniProt Q969H0: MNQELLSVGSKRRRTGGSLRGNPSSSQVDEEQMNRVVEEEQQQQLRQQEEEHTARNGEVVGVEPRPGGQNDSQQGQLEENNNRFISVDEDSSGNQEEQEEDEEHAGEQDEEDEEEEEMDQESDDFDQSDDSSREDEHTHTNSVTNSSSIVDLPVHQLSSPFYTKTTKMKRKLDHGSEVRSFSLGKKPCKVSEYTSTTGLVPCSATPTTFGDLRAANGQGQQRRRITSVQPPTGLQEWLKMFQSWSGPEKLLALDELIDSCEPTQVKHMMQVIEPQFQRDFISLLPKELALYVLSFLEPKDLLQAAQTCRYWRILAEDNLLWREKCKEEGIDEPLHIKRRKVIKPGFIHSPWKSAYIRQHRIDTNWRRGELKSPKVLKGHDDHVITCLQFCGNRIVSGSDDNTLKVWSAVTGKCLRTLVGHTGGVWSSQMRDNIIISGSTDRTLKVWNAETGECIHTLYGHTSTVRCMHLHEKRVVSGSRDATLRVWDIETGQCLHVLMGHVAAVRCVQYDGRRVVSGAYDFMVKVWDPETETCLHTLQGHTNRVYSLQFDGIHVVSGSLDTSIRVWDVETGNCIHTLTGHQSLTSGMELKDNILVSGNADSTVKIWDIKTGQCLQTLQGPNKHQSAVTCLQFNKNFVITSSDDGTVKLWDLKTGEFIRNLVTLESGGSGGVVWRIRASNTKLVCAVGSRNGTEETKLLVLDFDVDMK

Molecular target: T1, HA-PRR11-2A (T326A/T330A) (human) (UniProt Q96HE9)
T1 sequence: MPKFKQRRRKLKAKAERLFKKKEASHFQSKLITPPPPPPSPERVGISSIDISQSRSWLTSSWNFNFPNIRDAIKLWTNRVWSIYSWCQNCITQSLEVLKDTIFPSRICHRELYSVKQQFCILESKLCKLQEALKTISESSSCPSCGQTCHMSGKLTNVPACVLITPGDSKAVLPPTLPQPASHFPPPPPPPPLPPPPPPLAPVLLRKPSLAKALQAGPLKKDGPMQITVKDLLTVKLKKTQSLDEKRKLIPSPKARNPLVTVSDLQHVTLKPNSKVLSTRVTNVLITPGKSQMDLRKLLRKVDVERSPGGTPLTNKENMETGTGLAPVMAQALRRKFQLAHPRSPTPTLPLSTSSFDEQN
Experiment: co-IP; 293T cells transfected with HA-PRR11 (WT, fragments or mutants) and Flag-GSK3β or Flag-FBXW7 (WT or mutants); MG132 10 μM for 6 h before collection; IP with HA or Flag antibody, Protein A/G magnetic beads, Western blot; in some panels λ-PPase added to extracts, CHIR-99021, siGSK3β or GSK3β overexpression

binding: binds
Substance: Flag-FBXW7 (from UniProt Q969H0 1-707)
